Assay results from PMC6561926.
No constants are given. Whether binding was seen depends on the method and setting. In cells and extracts the contact can be indirect. Some binding calls cover weakened binding; strength is not graded here.

Chains of the proteins cited; added tags and fusions are not shown.
UniProt Q15910: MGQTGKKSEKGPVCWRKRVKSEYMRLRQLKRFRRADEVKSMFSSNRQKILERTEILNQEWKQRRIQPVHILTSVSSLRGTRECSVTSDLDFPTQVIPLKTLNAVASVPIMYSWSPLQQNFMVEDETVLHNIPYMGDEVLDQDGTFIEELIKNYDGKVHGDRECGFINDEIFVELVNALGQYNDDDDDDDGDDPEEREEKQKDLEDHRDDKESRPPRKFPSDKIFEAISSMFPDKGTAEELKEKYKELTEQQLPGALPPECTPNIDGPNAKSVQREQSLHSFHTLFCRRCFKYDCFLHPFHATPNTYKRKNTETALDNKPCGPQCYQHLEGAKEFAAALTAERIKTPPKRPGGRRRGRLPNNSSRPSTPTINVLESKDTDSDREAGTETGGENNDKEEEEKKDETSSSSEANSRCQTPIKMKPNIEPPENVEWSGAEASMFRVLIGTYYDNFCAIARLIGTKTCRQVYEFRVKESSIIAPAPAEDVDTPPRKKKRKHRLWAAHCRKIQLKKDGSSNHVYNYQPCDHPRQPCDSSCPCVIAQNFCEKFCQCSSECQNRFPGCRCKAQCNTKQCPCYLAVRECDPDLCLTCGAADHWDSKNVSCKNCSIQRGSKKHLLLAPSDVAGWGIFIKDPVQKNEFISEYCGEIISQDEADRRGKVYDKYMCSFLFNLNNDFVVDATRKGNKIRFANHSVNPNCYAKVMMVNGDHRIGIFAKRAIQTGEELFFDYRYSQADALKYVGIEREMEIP
UniProt P40763: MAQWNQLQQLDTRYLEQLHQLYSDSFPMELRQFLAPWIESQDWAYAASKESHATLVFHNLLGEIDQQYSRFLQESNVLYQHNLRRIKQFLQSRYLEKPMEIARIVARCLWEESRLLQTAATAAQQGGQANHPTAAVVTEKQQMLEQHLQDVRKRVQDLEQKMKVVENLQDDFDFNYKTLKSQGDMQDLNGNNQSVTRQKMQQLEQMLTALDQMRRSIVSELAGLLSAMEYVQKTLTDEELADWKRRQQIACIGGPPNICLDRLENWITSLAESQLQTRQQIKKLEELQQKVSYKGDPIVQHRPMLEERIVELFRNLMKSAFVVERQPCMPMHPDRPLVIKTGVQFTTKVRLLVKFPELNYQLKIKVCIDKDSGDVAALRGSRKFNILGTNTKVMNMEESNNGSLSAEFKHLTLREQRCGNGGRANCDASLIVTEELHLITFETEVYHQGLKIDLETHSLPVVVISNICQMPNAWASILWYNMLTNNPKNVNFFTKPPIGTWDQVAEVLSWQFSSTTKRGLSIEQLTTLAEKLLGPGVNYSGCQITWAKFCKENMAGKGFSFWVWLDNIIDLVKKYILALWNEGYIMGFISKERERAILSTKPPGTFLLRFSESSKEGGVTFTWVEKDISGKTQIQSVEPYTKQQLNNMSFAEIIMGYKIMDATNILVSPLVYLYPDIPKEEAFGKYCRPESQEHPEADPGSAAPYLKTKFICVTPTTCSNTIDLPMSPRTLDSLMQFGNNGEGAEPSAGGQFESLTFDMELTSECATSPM

Target: Enhancer of Zeste Homolog 2 (EZH2) (human (endogenous in C4-2 and LNCaP)) (UniProt Q15910)
Experiment: co-IP; endogenous proteins in C4-2 cell lysate; EZH2 antibody used to pull down the EZH2 complex, partners detected by WB; cells with/without 10 uM Enz for 4-5 days, with/without overexpression of lncRNA-p21 (pWPI), sh-lncRNA-p21 or AR knock-down

STAT3 (from UniProt P40763 1-770)
binding: binds
